Experimental data: PubChem BioAssay AID2685 (National Center for Advancing Translational Sciences (NCATS), 2010)
Some of the results follow. The main result of the screen is listed elsewhere. These columns were measured beside it and carry no call. Most of these compounds were active or inconclusive in the main read-out, so they are no random draw. Potencies come from curve fits of mixed quality, noted in brackets.

Experiment: qHTS Assay for Lipid Storage Modulators in Drosophila S3 Cells;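 as to cell number change: cells counted by Cell Tracker Red CMTPX staining in the red channel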
Conditions: BODIPY lipid droplet fluorescence, 18-24 h; for cell number change: measured here: cell count max response, cells fed with added oleic acid
In short: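 Laser-scanning cytometry quantifies lipid droplet accumulation (500–530 nm total intensity; droplet/cell object ratio) in oleic acid-fed (400 uM added) Drosophila S3 cells treated with a concentration series. 20 uM Triacsin C defined 100% inhibition.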

[1] = measured here: cell number channel AC50, cells fed with added oleic acid
[2] = measured here: lipid fluorescence (Fed channel) AC50, cells fed with added oleic acid

| SMILES | cell number change [%] | AC50 [1] | AC50 [2] |
| --- | --- | --- | --- |
| Cc1cc2n(n1)C(c1sccc1C)Nc1ccccc1-2 (configuration not stated) | -10.4 |  |  |
| COc1ccc(/C(N)=N/OC(=O)c2cccc([N+](=O)[O-])c2)cc1 | 12.2 | 6.51 µM [rising, single point] | 14.6 µM [falling, single point] |
| CC(C)c1ccc(N(CC(=O)NCc2cccnc2)S(=O)(=O)c2ccccc2)cc1 | 3.78 |  | 20.6 µM [rising, single point] |
| Cc1sc2nc(CSCC(=O)NC3CCCCC3)[nH]c(=O)c2c1C | -6.92 |  | 0.116 µM [falling, full curve, poor fit] |
| Cc1ccc(N2CCN(C(=S)Nc3ccc(Cl)cc3)CC2)cc1 | 7.14 |  | 29.1 µM [rising, single point] |
| Cc1ccc(C(=C2C3C=CC2C2C(=O)NC(=O)C32)c2ccc(C)cc2)cc1 (configuration not stated) |  | 6.51 µM [falling, single point] | 6.51 µM [falling, single point] |
| CCCCCCCN1N=C(C)C(C(=O)c2ccccc2)C1=O (configuration not stated) | -15.2 |  | 6.51 µM [falling, single point] |
| Cc1ccc(NC(=O)Nc2ccc(Cl)cc2)c(Br)c1 | -61.1 | 23.1 µM [falling, single point] |  |
| CCN=c1scc(-c2ccc(F)cc2)n1/N=C/c1ccccn1 | 35.6 | 0.731 µM [rising, full curve, poor fit] |  |
| COc1cccc(NC(=O)CCS(=O)(=O)c2ccc3c(c2)oc(=O)n3C)c1 | -4.42 |  | 0.58 µM [rising, single point] |
| CCOc1cc(/C=C(\C#N)c2[nH]nc(N)c2C#N)ccc1O | 9.22 |  | 3.66 µM [falling, partial curve] |
| COc1ccc(CCNC(=O)C(=O)NCCOc2ccccc2)cc1OC | 39.4 | 29.1 µM [rising, single point] |  |
| O=C(Nc1ccccn1)c1ccc(C(=O)c2ccccc2)cc1 | -24.1 |  | 29.1 µM [falling, single point] |
| CCOc1ccccc1Oc1cn[nH]c1-c1ccc(OC)cc1O | -21.2 | 0.517 µM [falling, full curve, poor fit] | 0.651 µM [falling, full curve, poor fit] |
| COc1ccc(NS(=O)(=O)c2csc(C(=O)N3CCCC3)c2)c(OC)c1 | -16.9 |  |  |
| CC(C)(C)C(=O)c1cn(CC(=O)NCc2ccc3c(c2)OCO3)c2ccccc12 | -8.67 |  | 6.51 µM [rising, single point] |
| O=C(COC(=O)CNC(=O)c1ccc(Cl)cc1Cl)NC(=O)NC1CCCCC1 | -15.4 |  | 0.82 µM [falling, full curve] |
| CCCCCN1CSC(=S)N(Cc2ccccc2)C1 | -5.68 |  | 0.651 µM [falling, full curve] |
| Cc1ccc(C)c(S(=O)(=O)Nc2ccc(C(=O)NCCCN3CCCC3=O)cc2)c1 | 1.49 | 0.103 µM [rising, full curve, poor fit] | 29.1 µM [rising, single point] |
| CC1=C/C(=N\OS(=O)(=O)c2ccccc2)C(C)=CC1=O | -91.7 | 16.4 µM [falling, partial curve] | 20.6 µM [falling, partial curve] |
| CC(C)(C)n1cnc2cc(NC(=O)c3cccs3)ccc21 | -36.2 |  |  |

Copied from the list:
AC50 [2], `CC(C)(C)C(=O)c1cn(CC(=O)NCc2ccc3c(c2)OCO3)c2ccccc12` reads 6.51 µM [rising, single point]
AC50 [1], `CCN=c1scc(-c2ccc(F)cc2)n1/N=C/c1ccccn1` reads 0.731 µM [rising, full curve, poor fit]
cell number change [%], `Cc1ccc(NC(=O)Nc2ccc(Cl)cc2)c(Br)c1` reads -61.1
AC50 [2], `O=C(COC(=O)CNC(=O)c1ccc(Cl)cc1Cl)NC(=O)NC1CCCCC1` reads 0.82 µM [falling, full curve]
AC50 [1], `CC1=C/C(=N\OS(=O)(=O)c2ccccc2)C(C)=CC1=O` reads 16.4 µM [falling, partial curve]
cell number change [%], `Cc1ccc(C)c(S(=O)(=O)Nc2ccc(C(=O)NCCCN3CCCC3=O)cc2)c1` reads 1.49

Carrying on:

| SMILES | cell number change [%] | AC50 [1] | AC50 [2] |
| --- | --- | --- | --- |
| Cc1cc(S(=O)(=O)N2CCCCC2)ccc1OCC(=O)N1CCCC1 | -18.2 |  | 29.1 µM [rising, single point] |
| CCCCN(CC)CCNC(=O)Cn1cnc2sc(C)c(S(=O)(=O)N3CCC(C)CC3)c2c1=O | 32.9 | 32.6 µM [rising, single point] |  |
| Cc1ccc(S(=O)(=O)N2CCN(C(=O)COC(=O)CNC(=O)c3ccccc3)CC2)c(C)c1 | -38 | 0.00731 µM [falling, full curve, poor fit] |  |
| CCc1ccc(N2CC(C(=O)Nc3ccc4c(c3)OCCO4)CC2=O)cc1 (configuration not stated) | 25.7 |  | 29.1 µM [rising, partial curve] |
| Cc1cccc(S(=O)(=O)NC2CCCCCCC2)c1 | 1.9 |  | 29.1 µM [rising, partial curve, poor fit] |
| CC(C)NC(=O)CCCc1ccccc1 | 10.7 |  |  |
| OC(CNCC1(N2CCCCC2)CCCCC1)COc1ccc(Cl)cc1Cl (configuration not stated) | 23.8 |  |  |
| COc1ccc(CCNC(=O)c2cnn3cccnc23)cc1OC |  | 0.58 µM [rising, single point] |  |
| Cc1ccc(C)c(OCc2nc3ccc(S(=O)(=O)Nc4c(C)n(C)n(-c5ccccc5)c4=O)cc3[nH]2)c1 | 64 | 10.3 µM [rising, partial curve] |  |
| O=C(NCc1ccco1)c1cc2n(n1)C(C(F)(F)F)CC(c1ccc(Cl)c(Cl)c1)N2 (configuration not stated) | -19.8 |  |  |
| Cc1ccccc1NC(=O)COC(=O)c1cc[n+]([O-])cc1 | 6.96 |  | 0.00517 µM [rising, full curve, poor fit] |
| C=CCN1C(=O)c2ccccc2NC1c1ccc(Br)s1 (configuration not stated) | -10.5 |  |  |
| S=C(NCCc1ccccc1)N1CCn2cccc2C1c1ccncc1 (configuration not stated) |  |  | 23.1 µM [falling, partial curve] |
| O=C(Nc1ccc(C(=O)c2ccccc2)cc1)c1ccccc1 | -5.62 |  | 3.66 µM [falling, single point] |
| N#CC(Cc1cccc(CC(C#N)(c2ccccc2)c2ccccc2)c1)(c1ccccc1)c1ccccc1 | 30.5 | 18.4 µM [rising, partial curve, poor fit] | 4.61 µM [rising, single point] |
| O=C(NCc1ccccn1)Nc1cccc(Cl)c1 | -24.9 |  | 20.6 µM [falling, single point] |
| CN1CCCN(c2ccc([N+](=O)[O-])cc2)CC1 | 16.5 |  | 32.6 µM [falling, single point] |
| Cc1ccc(-c2cc(-c3ccc(C)cc3O)[nH]n2)cc1 | -13.7 |  |  |
| Cc1cc(S(=O)(=O)Nc2cccc(Cl)c2)c(C)s1 | -29.8 |  | 11.6 µM [falling, partial curve, poor fit] |
| Cc1c(/C=N/n2cnnc2)c2ccccc2n1CCOc1ccc(Cl)cc1 | -21.2 |  | 0.58 µM [rising, full curve] |
| Cc1ccc(C)c(OCC(=O)Nc2c[nH]c(=O)[nH]c2=O)c1 | -9.32 |  | 0.082 µM [falling, full curve, poor fit] |

| SMILES | cell number change [%] | AC50 [1] | AC50 [2] |
| --- | --- | --- | --- |
| CN1CCN(C(=S)Nc2ccc(Cl)c(Cl)c2)CC1 | -16.8 | 0.0058 µM [falling, full curve, poor fit] | 0.164 µM [falling, partial curve, poor fit] |
| Cc1ccsc1CN(C)C(=O)CN1C(=O)NC(c2ccccc2)(c2ccccc2)C1=O | -1.98 |  | 6.51 µM [falling, single point] |
| Cc1cccc(C(=O)Nc2cccc(-c3cnc4ccccc4n3)c2)c1 |  | 0.731 µM [rising, full curve] | 0.82 µM [rising, full curve] |
| CCOc1ccc(OCCCCNCCN)cc1 | -3.75 |  | 4.11 µM [falling, full curve] |
| Cc1ccc(NC(=O)CN2CCC3(O)CCCCC3C2c2ccc3c(c2)OCO3)c(C)c1 (configuration not stated) | -10.8 |  |  |
| O=C(N/N=C/c1cccc(Oc2ccccc2)c1)c1ccc(O)cc1O | -7.43 |  | 29.1 µM [falling, single point] |
| CCN(CC(=O)Nc1ccc2c(c1)OCCO2)Cc1cc(=O)oc2cc(C)c(C)cc12 | 115 | 23.1 µM [rising, single point] |  |
| COc1ccc(N2C(=O)CC(Sc3ncccc3C(=O)O)C2=O)cc1 (configuration not stated) | -96.4 | 18.4 µM [falling, partial curve] | 0.092 µM [falling, full curve, poor fit] |
| CCCn1c(=O)c(C(=O)Nc2c(C)n(C)n(-c3ccccc3)c2=O)c(O)c2ccccc21 | -1.55 |  | 0.00517 µM [rising, full curve, poor fit] |
| Cc1ccc(CNC(=O)C(=O)NCC2OCCN2S(=O)(=O)c2ccc3c(c2)OCCO3)cc1 (configuration not stated) | 30.3 | 9.2 µM [rising, partial curve] | 2.06 µM [rising, full curve] |
| COc1ccc2oc(=O)c(/C(C)=N/Nc3nc(-c4cc(C)ccc4C)cs3)cc2c1 | -2.24 |  |  |
| O=C(C1CC1)N1CCc2cc(Br)cc(S(=O)(=O)NCCCN3CCCCC3)c21 | -1.28 |  |  |
| C=CCN(C(=O)CN1CCCCC1)c1nc(-c2ccccc2)cs1 | 22.2 |  | 29.1 µM [rising, single point] |
| O=C(NCCC1=CCCCC1)c1cc(S(=O)(=O)N2CCOCC2)c(Cl)cc1Cl |  | 0.116 µM [rising, full curve, poor fit] | 20.6 µM [rising, partial curve, poor fit] |
| CN(C)c1nc(N)nc(CSc2ccccn2)n1 | 20.2 |  | 2.91 µM [rising, single point] |
| CN(CCc1cn[nH]c1)C(=O)C1CCC(=O)N(CC2CCCCC2)C1 (configuration not stated) | -7.73 |  |  |
| O=C(Nc1nnc(CCN2CCOCC2)s1)C1CCCCC1 | -17 |  | 29.1 µM [falling, single point] |
| CC1CCC2C(C1)c1sc(=O)[nH]c1SC2(C)C (configuration not stated) | -85.3 | 2.06 µM [rising, partial curve] |  |
| Cc1nc2ccc(S(=O)(=O)NC(C(=O)N3CCC(C)CC3)C(C)C)cc2s1 (configuration not stated) | -11.7 | 1.16 µM [falling, single point] | 1.16 µM [falling, single point] |
